Laboratory results published in US20260183269A1, “PHARMACEUTICAL COMPOSITION FOR PREVENTION OR TREATMENT OF DRUG-RELATED PEPTIC ULCER COMPRISING ZASTAPRAZAN OR PHARMACEUTICALLY ACCEPTABLE SALT THEREOF” (priority 2022, published 2026).
Read-outs that look alike come from different tables or passages of the source.

Experiment: clinical
Type: in vivo, human (healthy subjects)
Details: human, oral; for AUC(0-t): in vivo, n = 22, mean ± SD, read-out: naproxen AUCT, SS; for Cmax: n = 22, plasma, mean ± SD, read-out: naproxen Cmax, SS
Experimental: • JP-1366, 20 mg 2 capsules (zastaprazan citrate salt 40 mg)
Blood samples were collected from each subject at a designated time for the PK evaluation of the clinical trial drug, and all subjects underwent safety evaluation according to the designated schedule.
Blood samples were collected at designated times for the PK evaluation of zastaprazan (JP-1366).

[1] = Z + N (zastaprazan 40 mg and naproxen 500 mg)

COc1ccc2cc([C@H](C)C(=O)O)ccc2c1 [Naproxen, naproxen, reference compound]
AUC(0-t) (N (naproxen 500 mg alone)): 757 ± 66.6 µg·h/mL | AUC(0-t) [1]: 770 ± 76 µg·h/mL | Cmax (N (naproxen 500 mg alone)): 92.5 ± 8.19 µg/mL | Cmax [1]: 97.4 ± 11.5 µg/mL
